± gives the standard deviation of the averaged measurements. Most values lie at the floor of the assay. Slopes are relative: functional sequences can read slightly below zero.
Each substance was assayed on Saccharomyces cerevisiae PS128 hsf1 delta, HSF1(1-493) fusion (assay: growth estimate (transactivation domain function in HSF1 fusion, heat-shock survival) (a.u. (slope of normalised read count over time)); higher = stronger growth at 37°C, i.e. more transactivation activity). Settings: library: random library.
Work on PAKREEGVFCQLDDTLRVAY yielded a growth estimate of under -0.25. Substance SLSGGCRPSDSPMDF has a growth estimate of under -0.25. RSRCPLISLAAHPWLGHI gave a growth estimate of under -0.25. RGSHTGALIVCI gave a growth estimate of under -0.25. With GIGVGGDRVG the growth estimate was under -0.25. In the case of EYHCRKALR, the growth estimate is reported as -0.243. With TGY the growth estimate was under -0.25. In the case of NQDLS, the growth estimate is reported as under -0.25. SKGRAGTWCTLSVNPCALEP was tested, and the growth estimate was under -0.25. Work on ITEC yielded a growth estimate of under -0.25. IFSVE gave a growth estimate of under -0.25. SGTSSLGSGVRTPHTCNGPG showed a growth estimate of -0.246. IQRPSGPCLANRPLYYNYVG was tested, and the growth estimate was -0.228. Substance KWNFAVRI has a growth estimate of under -0.25. For SSSRPVETDVPNIHGSTGVS, the growth estimate was under -0.25. SIH gave a growth estimate of under -0.25. LYS showed a growth estimate of -0.247 ± 0.0037. SVRGG was tested, and the growth estimate was under -0.25. TNVYKRKHSHK showed a growth estimate of under -0.25. RPRANRRG was tested, and the growth estimate was under -0.25. Work on IAFVYNSSRTRGFRELKSEA yielded a growth estimate of under -0.25. With LLMTSDRHGVSEANGTVQRA the growth estimate was under -0.25. With ISMLQLGKIWEDKRVHDPPS the growth estimate was under -0.25. Work on KVECHACYPAKRNKIAGIRA yielded a growth estimate of under -0.25. GPCPQLKLSSGPVLRQAYGA gave a growth estimate of under -0.25. MFCLGSIA was tested, and the growth estimate was under -0.25. With IRGQECLGARS the growth estimate was under -0.25. RFLCGPRTGLLVD showed a growth estimate of under -0.25. FATLWS gave a growth estimate of under -0.25. ALTSRAHAAPWGERALFVLL gave a growth estimate of under -0.25. In the case of RYTRPHRSECAVRHVDGVDV, the growth estimate is reported as under -0.25. RVQ showed a growth estimate of under -0.25. In the case of AEQFWVRLSNTSI, the growth estimate is reported as under -0.25. IVHWLPAGSLGLVRDYIEHR was tested, and the growth estimate was under -0.25. WRGSLR gave a growth estimate of under -0.25. Substance HVLGGQLRCSPLAGEPRVKV has a growth estimate of under -0.25. For TGARNYRQGNMNGRGREFAL, the growth estimate was under -0.25. Substance KYIDRL has a growth estimate of under -0.25. With QGLVNRRFAEAHGMHCVSVP the growth estimate was under -0.25. NPKL showed a growth estimate of under -0.25. In the case of EVGKQTCASETAPNG, the growth estimate is reported as under -0.25. For PGHLRRGGS, the growth estimate was under -0.25. In the case of DRVYHALGVVLESYRKHRVP, the growth estimate is reported as under -0.25. With VDACYRHFSFIDDGLPTTSA the growth estimate was under -0.25. For QDLLF, the growth estimate was under -0.25. In the case of AGVHLSRNLMLGPLRVKSE, the growth estimate is reported as under -0.25. Substance FGPRRFDRHGT has a growth estimate of under -0.25. GGQAPVHITRQLLPIS gave a growth estimate of under -0.25. For NPRTRMGKDLREIGSYYSET, the growth estimate was under -0.25. For SSFLREGFRCKERR, the growth estimate was under -0.25. VIVIKGLPC gave a growth estimate of under -0.25. In the case of FFDTSMIFEFSMSRAKEFLR, the growth estimate is reported as under -0.25. FQPASSAHGSILECLIVPEE showed a growth estimate of 4.08. AGSPI was tested, and the growth estimate was under -0.25. With GVSHRRLLSCG the growth estimate was under -0.25. In the case of FRYI, the growth estimate is reported as under -0.25. With VVF the growth estimate was under -0.25. For GGKTVRHWKRPRGERVDAGR, the growth estimate was under -0.25. IADITFS showed a growth estimate of under -0.25. Work on AREVAEQCGIQECSHSAAVV yielded a growth estimate of under -0.25. Substance VGPQGDCVAGVT has a growth estimate of under -0.25. Work on RCLSVSPAANTCDSVLDNRE yielded a growth estimate of under -0.25. In the case of AVHIRFRRTTIVCSVAC, the growth estimate is reported as under -0.25. SAQIFLIDRDAAGPDRTKER showed a growth estimate of under -0.25. With PRVARCQRACVPALRNLKVW the growth estimate was under -0.25. YGDQKIRR was tested, and the growth estimate was under -0.25. Substance PVTCDLLAVDVIRTFSNIVR has a growth estimate of under -0.25. With LEQVFFT the growth estimate was under -0.25. Substance SGCKAPRLESPAIFCFGEIV has a growth estimate of under -0.25. Substance RTQSEYSSLVY has a growth estimate of under -0.25. For LPKGSPRSLGTADQKAI, the growth estimate was under -0.25. Work on GLRCSVPGTGSGLSVEGHGS yielded a growth estimate of under -0.25. TYRVKRAKGIGNTEVHVRPR showed a growth estimate of under -0.25. With VRGMHQRPLPSIVRTFVLVT the growth estimate was under -0.25. Substance SCGQIWYKYLAALGLQWAIE has a growth estimate of under -0.25. Substance ERAGMLDRSYLDSEVYRGLT has a growth estimate of under -0.25. With ARHGCSGWLILS the growth estimate was under -0.25. Work on TRLEL yielded a growth estimate of under -0.25. With SMHVCNRLCRYWVILRDNIQ the growth estimate was under -0.25. In the case of PSVSSSDAGIPRASGSRARN, the growth estimate is reported as -0.228. For GETSRSCINVEVIKPSAECR, the growth estimate was under -0.25. VRGALLGSVTLVCTGARLQN gave a growth estimate of under -0.25. In the case of RCKVTLARGKSESSGSLRTS, the growth estimate is reported as under -0.25. In the case of LVVVL, the growth estimate is reported as under -0.25. Substance LGWQELSIHGLGLKPLLAPS has a growth estimate of under -0.25. In the case of GEICADLMLTARVGSGPRVR, the growth estimate is reported as under -0.25. VCALA showed a growth estimate of under -0.25. For RCSRARSPFISKPC, the growth estimate was under -0.25. Work on SESQ yielded a growth estimate of under -0.25. YFCD showed a growth estimate of under -0.25. With TFHPLLGQSRDVTSNVMLAY the growth estimate was under -0.25. With LFVSRWLYLRVSRHTTTSHR the growth estimate was under -0.25. In the case of PRICYRIMKVRGGNASRETQ, the growth estimate is reported as under -0.25. Substance NSPVTFSWAIHGTQVPVWSR has a growth estimate of under -0.25. SPVPPSPCAVCACAQMLTTL gave a growth estimate of under -0.25. For LDACQDSVN, the growth estimate was under -0.25. For GGGRNLYLEVHIGGRRFKVH, the growth estimate was under -0.25. VGLYHITSLDILVGLINR showed a growth estimate of under -0.25. In the case of RLDRH, the growth estimate is reported as under -0.25. YVRW showed a growth estimate of under -0.25. With GSCFSFTIHPRTRRKMRG the growth estimate was under -0.25. Substance NLLCTTPRATYHCSY has a growth estimate of under -0.25. SCCRAGWGCLVWQRSLAGHH gave a growth estimate of under -0.25. With AISQPGIYTHSRNTRSVPLG the growth estimate was under -0.25. Substance EMPLLRVLVCIPVIMVRWGR has a growth estimate of under -0.25. KSRAFD was tested, and the growth estimate was under -0.25. MCT showed a growth estimate of under -0.25. Substance FPRIAGIPRAKPIRKNPPYI has a growth estimate of under -0.25. ISRGVSRGPMDQQQPGRRWI was tested, and the growth estimate was under -0.25. Work on DQLVTRFMDVAPSTQRIVCG yielded a growth estimate of under -0.25. In the case of RSPGYSLVRKASWTKAVCSA, the growth estimate is reported as under -0.25. Work on GGRAVDGGWCCGLN yielded a growth estimate of under -0.25. In the case of GIRVRRQ, the growth estimate is reported as under -0.25. RAQFAHIGASVSKALRGVPP gave a growth estimate of -0.246. In the case of LRSPVVSSR, the growth estimate is reported as under -0.25. For GLWFRAPIVDPSLSVWLRFR, the growth estimate was under -0.25. QDAGQEARDGLPGATLTLRT was tested, and the growth estimate was under -0.25. Work on ASQFTIPRRTKI yielded a growth estimate of -0.23. Substance TATAICPSL has a growth estimate of under -0.25. For GGPLIYIV, the growth estimate was under -0.25. With DLFVNGSE the growth estimate was under -0.25. ANGKNGGGKGDSRAHASSTG gave a growth estimate of under -0.25. In the case of TVSPNPTDERTSLLEGKFCS, the growth estimate is reported as under -0.25. With IAAIVSQEATL the growth estimate was under -0.25. FYACRVDCMLLLDLRIF showed a growth estimate of under -0.25. For IAQGHLCVQASEAEIKLATA, the growth estimate was under -0.25. Work on TRVFGAVKRDRTVP yielded a growth estimate of under -0.25. PGGAKIYDLRGARLCMNRTA was tested, and the growth estimate was under -0.25. ILCLLTVRIISHKFEACTTA gave a growth estimate of under -0.25. In the case of SWPKAHWSFGPACWSGWQAV, the growth estimate is reported as under -0.25. With GTVRMMVAASPRRTARTVLR the growth estimate was under -0.25. YYLATTSPMT was tested, and the growth estimate was -0.245. LTSTDGPTTMHSGSPCAAAF was tested, and the growth estimate was under -0.25. GDRWVGGRSDLRLYQLILCE gave a growth estimate of under -0.25. FRALCWTRWLRITFYQAGLS gave a growth estimate of under -0.25. With LRDA the growth estimate was under -0.251. SCGALRMPCKSLRVAGGGMP was tested, and the growth estimate was under -0.25. RKGCLEP showed a growth estimate of under -0.25. With YWRDLMS the growth estimate was under -0.25. Substance LGHRGE has a growth estimate of under -0.25. KYVCSDISGGSYYKRKTLLQ gave a growth estimate of under -0.25. For FMLGSHL, the growth estimate was under -0.25. Work on RTRFQNAEQGLIAWTTAGQD yielded a growth estimate of under -0.25. Substance RTEAS has a growth estimate of under -0.25. PCSIMRRSHRARVVSL was tested, and the growth estimate was under -0.25. For LFV, the growth estimate was under -0.25.

From the supplement of paper PMC5949888
